The list shows a part of the results.

The chains behind the UniProt entries cited, without tags or fusion partners. Where a name states a change or a piece, a line headed by the entry shows the natural chain unless it says otherwise.
UniProt Q9NP55: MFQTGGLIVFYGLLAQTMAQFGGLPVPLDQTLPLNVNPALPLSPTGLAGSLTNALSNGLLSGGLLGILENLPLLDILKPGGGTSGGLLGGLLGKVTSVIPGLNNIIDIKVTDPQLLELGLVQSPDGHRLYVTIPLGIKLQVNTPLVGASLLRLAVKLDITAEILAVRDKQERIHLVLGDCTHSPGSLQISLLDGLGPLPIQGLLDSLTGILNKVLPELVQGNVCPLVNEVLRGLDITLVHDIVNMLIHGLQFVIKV
UniProt Q96RK4: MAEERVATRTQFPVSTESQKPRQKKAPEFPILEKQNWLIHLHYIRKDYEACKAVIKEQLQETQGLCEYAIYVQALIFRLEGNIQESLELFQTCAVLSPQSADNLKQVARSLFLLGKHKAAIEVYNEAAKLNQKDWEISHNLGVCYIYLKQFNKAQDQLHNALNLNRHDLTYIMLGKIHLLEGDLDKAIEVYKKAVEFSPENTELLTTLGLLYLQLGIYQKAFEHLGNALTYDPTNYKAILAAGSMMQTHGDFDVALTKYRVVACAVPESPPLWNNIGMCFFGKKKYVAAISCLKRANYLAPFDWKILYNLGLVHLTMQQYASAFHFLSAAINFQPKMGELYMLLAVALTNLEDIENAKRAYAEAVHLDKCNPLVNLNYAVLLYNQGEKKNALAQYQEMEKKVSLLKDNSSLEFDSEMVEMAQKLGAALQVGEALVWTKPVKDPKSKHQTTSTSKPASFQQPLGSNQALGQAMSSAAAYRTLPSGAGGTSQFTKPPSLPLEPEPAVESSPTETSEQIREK
UniProt Q9BSF8: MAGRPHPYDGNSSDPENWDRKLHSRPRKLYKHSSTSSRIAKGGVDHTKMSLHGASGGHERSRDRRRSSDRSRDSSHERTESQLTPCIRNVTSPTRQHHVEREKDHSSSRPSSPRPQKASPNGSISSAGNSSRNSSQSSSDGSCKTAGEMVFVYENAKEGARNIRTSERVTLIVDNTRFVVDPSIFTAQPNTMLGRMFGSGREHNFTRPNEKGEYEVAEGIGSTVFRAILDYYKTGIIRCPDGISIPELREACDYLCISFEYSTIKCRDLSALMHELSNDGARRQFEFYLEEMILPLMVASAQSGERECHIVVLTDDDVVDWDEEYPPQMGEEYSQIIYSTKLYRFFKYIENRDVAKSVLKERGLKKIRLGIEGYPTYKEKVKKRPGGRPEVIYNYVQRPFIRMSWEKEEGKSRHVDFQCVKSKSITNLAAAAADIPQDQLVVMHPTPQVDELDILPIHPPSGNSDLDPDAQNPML
UniProt Q9NWD9: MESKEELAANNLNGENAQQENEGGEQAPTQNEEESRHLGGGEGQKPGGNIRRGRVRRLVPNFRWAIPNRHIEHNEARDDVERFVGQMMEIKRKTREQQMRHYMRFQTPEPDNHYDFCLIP
UniProt Q96DR5: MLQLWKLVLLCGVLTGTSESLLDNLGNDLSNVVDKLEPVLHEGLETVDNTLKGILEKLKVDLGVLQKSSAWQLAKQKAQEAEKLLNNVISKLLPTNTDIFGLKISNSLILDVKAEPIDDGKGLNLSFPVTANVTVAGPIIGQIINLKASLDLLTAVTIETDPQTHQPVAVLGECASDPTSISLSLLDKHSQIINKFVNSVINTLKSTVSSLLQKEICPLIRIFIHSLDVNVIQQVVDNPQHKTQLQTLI
UniProt Q1RMZ1: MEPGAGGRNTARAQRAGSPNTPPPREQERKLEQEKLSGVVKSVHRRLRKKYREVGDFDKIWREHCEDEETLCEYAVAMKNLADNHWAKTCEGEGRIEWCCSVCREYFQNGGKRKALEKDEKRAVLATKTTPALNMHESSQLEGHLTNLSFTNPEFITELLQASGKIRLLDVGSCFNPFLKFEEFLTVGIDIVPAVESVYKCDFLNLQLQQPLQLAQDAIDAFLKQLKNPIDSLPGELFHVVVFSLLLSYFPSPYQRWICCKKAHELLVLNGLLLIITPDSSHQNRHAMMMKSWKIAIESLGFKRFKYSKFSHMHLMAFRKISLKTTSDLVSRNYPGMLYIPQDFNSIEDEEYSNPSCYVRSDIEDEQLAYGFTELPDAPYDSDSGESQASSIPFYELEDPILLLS
UniProt O43505: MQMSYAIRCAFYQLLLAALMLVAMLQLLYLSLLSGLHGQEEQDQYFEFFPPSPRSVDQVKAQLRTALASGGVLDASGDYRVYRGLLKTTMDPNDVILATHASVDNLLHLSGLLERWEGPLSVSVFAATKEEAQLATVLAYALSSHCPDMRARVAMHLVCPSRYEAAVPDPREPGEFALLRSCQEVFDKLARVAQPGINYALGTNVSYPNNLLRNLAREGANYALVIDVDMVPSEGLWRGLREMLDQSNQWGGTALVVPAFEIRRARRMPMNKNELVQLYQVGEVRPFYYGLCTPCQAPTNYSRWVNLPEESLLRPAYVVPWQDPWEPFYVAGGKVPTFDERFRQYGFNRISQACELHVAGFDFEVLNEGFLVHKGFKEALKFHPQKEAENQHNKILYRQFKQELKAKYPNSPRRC
UniProt Q8IWZ6: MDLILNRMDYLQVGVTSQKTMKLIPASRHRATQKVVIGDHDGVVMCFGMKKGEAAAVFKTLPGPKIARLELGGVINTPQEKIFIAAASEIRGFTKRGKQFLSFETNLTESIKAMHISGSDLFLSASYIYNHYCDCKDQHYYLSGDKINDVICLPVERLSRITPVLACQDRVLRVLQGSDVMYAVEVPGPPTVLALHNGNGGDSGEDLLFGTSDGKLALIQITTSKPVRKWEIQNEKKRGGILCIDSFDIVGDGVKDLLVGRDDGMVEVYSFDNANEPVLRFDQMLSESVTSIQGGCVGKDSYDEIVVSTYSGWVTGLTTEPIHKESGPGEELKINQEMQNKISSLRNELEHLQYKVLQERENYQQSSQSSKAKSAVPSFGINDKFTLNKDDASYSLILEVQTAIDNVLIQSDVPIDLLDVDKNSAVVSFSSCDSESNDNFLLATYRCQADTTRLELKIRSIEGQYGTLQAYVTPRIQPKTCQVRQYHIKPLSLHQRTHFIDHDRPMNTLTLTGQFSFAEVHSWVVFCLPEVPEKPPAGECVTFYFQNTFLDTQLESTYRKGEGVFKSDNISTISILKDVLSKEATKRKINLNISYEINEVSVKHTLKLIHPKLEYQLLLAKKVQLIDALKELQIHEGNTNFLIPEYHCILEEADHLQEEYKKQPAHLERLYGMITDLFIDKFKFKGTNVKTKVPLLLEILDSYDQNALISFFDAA
UniProt Q8WY36: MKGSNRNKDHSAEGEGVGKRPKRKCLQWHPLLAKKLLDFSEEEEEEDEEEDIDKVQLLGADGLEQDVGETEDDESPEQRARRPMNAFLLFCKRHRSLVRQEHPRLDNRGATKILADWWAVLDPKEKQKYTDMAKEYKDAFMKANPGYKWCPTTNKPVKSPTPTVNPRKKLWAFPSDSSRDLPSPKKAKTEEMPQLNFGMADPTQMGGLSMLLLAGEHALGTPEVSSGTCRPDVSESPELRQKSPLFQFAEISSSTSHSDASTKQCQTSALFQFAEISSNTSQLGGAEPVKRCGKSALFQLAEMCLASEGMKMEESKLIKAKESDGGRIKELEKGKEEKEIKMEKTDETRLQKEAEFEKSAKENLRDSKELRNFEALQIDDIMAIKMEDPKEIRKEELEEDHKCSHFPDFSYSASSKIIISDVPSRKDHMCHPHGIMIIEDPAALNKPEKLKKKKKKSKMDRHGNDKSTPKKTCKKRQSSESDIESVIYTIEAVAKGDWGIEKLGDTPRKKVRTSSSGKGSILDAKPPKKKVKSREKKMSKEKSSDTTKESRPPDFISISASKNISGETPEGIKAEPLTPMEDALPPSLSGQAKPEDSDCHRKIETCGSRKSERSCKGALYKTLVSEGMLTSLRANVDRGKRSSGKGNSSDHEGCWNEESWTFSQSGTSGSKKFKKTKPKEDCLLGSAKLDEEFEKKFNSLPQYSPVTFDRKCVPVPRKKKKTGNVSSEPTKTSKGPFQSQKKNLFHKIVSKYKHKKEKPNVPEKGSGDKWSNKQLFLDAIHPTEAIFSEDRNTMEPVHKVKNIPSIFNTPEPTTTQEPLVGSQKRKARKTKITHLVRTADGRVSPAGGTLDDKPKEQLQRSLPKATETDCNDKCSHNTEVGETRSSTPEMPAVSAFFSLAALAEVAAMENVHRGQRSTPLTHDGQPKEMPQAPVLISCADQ
UniProt Q5H9F3: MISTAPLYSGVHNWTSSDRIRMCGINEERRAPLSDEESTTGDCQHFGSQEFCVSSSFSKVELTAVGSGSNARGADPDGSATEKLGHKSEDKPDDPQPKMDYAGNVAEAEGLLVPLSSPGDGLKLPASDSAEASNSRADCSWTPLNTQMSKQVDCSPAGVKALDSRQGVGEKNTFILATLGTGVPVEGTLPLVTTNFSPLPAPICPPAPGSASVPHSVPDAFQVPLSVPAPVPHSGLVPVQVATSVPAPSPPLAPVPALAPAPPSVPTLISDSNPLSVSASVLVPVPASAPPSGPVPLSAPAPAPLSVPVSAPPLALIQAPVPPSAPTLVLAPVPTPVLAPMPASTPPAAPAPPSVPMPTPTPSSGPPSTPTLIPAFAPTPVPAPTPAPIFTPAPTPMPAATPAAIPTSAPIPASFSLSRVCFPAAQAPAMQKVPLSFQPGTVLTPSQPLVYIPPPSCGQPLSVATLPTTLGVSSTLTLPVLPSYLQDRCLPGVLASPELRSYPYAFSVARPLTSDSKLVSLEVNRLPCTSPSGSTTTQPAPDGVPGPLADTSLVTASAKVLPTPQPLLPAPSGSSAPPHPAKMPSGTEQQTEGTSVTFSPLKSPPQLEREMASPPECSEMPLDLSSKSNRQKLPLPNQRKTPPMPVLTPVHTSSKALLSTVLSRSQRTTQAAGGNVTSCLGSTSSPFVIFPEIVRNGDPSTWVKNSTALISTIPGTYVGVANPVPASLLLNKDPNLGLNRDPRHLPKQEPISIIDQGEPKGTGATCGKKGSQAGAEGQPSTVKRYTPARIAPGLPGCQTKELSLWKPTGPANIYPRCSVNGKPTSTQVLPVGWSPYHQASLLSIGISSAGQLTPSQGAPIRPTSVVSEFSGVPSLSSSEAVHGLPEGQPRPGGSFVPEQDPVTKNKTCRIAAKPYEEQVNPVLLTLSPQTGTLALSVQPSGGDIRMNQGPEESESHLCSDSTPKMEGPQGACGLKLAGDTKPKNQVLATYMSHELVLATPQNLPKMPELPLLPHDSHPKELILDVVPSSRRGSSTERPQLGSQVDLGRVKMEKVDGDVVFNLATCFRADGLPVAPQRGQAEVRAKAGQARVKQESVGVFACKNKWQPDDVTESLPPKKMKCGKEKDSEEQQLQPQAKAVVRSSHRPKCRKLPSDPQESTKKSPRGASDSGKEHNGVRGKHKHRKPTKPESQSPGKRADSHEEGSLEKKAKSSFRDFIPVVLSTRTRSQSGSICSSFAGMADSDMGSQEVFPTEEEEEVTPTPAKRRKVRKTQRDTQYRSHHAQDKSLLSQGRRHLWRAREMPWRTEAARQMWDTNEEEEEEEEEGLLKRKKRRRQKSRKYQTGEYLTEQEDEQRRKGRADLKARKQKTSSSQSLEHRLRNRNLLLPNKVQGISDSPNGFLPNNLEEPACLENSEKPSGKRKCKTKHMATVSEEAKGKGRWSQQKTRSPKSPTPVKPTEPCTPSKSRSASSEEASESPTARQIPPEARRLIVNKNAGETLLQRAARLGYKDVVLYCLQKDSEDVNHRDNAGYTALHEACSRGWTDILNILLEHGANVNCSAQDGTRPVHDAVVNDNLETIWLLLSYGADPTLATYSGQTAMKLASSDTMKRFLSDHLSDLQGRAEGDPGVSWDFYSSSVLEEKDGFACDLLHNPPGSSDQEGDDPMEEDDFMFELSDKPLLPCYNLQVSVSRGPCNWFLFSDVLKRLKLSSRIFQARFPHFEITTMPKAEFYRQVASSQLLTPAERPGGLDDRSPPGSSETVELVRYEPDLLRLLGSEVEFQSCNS
UniProt O14503, whole entry, looked up: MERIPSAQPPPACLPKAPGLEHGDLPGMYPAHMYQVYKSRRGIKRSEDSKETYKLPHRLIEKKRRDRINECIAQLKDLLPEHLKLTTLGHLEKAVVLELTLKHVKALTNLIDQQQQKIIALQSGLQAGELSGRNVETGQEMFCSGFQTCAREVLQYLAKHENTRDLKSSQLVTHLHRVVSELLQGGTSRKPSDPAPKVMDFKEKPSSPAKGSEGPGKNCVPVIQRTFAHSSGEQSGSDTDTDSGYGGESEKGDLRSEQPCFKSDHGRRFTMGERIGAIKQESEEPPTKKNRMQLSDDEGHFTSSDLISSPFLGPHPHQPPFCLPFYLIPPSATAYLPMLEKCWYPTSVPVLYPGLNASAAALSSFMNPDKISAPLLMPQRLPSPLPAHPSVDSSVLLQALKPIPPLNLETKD
UniProt P62324: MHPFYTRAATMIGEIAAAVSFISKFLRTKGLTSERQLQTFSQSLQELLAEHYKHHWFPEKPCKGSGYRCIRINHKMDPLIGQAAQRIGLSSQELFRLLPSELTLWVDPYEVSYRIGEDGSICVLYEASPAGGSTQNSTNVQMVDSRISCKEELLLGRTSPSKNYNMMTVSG

Compound in the first test: Cc1ncc(-c2ccnc(Nc3ccc(S(C)(=O)=O)cc3)n2)n1C(C)C
As to the kind of experiment: log2 fold change, soluble protein after heating vs DMSO (PISA); higher = thermal stabilisation; K562 lysate, 10 uM; active = over 0.2 and 3.5 SD of the protein, either way, in both replicates (recomputed). Summed up:
(§1)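 K562 pellets were dounce-homogenised in PBS pH 7.4 containing 1 mM MgCl2, and the crude extract, at 1 mg/mL protein, was exposed to 10 μM compound for 30 min. Aliquots were heated for 3 min across 48°C-58°C, pooled, brought to 0.5% NP-40 at 4°C and spun at 21,000xg for 90 min, with the supernatant taken as soluble protein. TMTpro 16plex LC-MS/MS with equalised channel sums quantified that protein. Values are log-two fold changes in thermal stability relative to solvent controls, taken from duplicates.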
Take BEGAIN, A0A1B0GVM0: the log2 fold change was inactive: 0.047.
In the case of BPIFA1 (UniProt Q9NP55), the log2 fold change is inactive: -0.013.
BTBD1 (UniProt Q9H0C5): the log2 fold change was inactive: -0.034.
The same measure, in the same setting: with BRD9 (UniProt Q9H8M2) the figure was inactive: -0.22; with BBS4 isoform 2 (UniProt Q96RK4), inactive: -0.177.
In the case of BTBD10 isoform 2 (UniProt Q9BSF8), the log2 fold change was inactive: -0.012.
With BPIFB1 (UniProt Q8TDL5), the log2 fold change was inactive: -0.004.
With BEX4 (UniProt Q9NWD9), the log2 fold change was inactive: 0.081.
For BPIFA2 (UniProt Q96DR5), the log2 fold change was inactive: 0.131.
Turning to BMT2 (UniProt Q1RMZ1), the log2 fold change is inactive: 0.134.
In the case of B4GAT1 (UniProt O43505), the log2 fold change was inactive: -0.251.
For the target BBS7 (UniProt Q8IWZ6), the log2 fold change is inactive: -0.03.
For the target BBX (UniProt Q8WY36), the log2 fold change was inactive: 0.234.

Compound in a further test: Cn1cc(-c2ccc3c(c2)CCN3C(=O)Cc2cccc(C(F)(F)F)c2)c2c(N)ncnc21
The description is as above. Summed up:
as §1
Consider BPIFA1 (UniProt Q9NP55), for which the log2 fold change was inactive: 1.39.
In the case of BPNT1 (UniProt A6NF51), the log2 fold change was inactive: -0.06.
Still for that read-out and setting: with BBS4 isoform 2 (UniProt Q96RK4) the figure was inactive: -0.112; with BTBD10 isoform 2 (UniProt Q9BSF8), inactive: -0.012; with BEX4 (UniProt Q9NWD9), inactive: 0.09.
Consider B4GAT1 (UniProt O43505), for which the log2 fold change is inactive: -0.035.
BBS7 (UniProt Q8IWZ6): the log2 fold change is active: 0.489.
Take BRWD1 (UniProt Q9NSI6): the log2 fold change is inactive: 0.235.
Regarding B4GALT4 (UniProt O60513), the log2 fold change is inactive: -0.015.
The same measure, in the same setting: the value for BBX (UniProt Q8WY36) was inactive: 0.113; that for BCORL1 isoform 3 (UniProt Q5H9F3) was inactive: -0.09.

Compound in another test: Cn1cc(CNCC2CCN(c3ncc(C(=O)NO)cn3)CC2)c2ccccc21 [quisinostat]
Described as above. In short, it runs like this: as §1
As for BAIAP2 isoform 6 (UniProt Q9UQB8), the log2 fold change is inactive: 0.025.
Regarding B4GALNT4 (UniProt Q76KP1), the log2 fold change was inactive: 0.01.
As to BTBD2 (UniProt Q9BX70), the log2 fold change is inactive: 0.054.
With BEGAIN, A0A1B0GVM0, the log2 fold change is inactive: -0.003.
Still for that read-out and setting: with BHLHE40 (UniProt O14503) the figure was inactive: 0.025; with BTG1 (UniProt P62324), inactive: -0.008; with BTBD10 isoform 2 (UniProt Q9BSF8), inactive: -0.105.
With BEX4 (UniProt Q9NWD9), the log2 fold change is inactive: -0.038.
Regarding B4GAT1 (UniProt O43505), the log2 fold change is inactive: 0.013.
Turning to BBS7 (UniProt Q8IWZ6), the log2 fold change is inactive: 0.06.
Regarding B4GALT7 (UniProt Q9UBV7), the log2 fold change is inactive: 0.092.
Take BNIP3L (UniProt O60238): the log2 fold change was inactive: -0.193.
With BRWD1 (UniProt Q9NSI6), the log2 fold change is inactive: -0.094.
As for BBX (UniProt Q8WY36), the log2 fold change was inactive: -0.183.
For the target BCORL1 isoform 3 (UniProt Q5H9F3), the log2 fold change was inactive: 0.035.
BDP1 (UniProt A6H8Y1): the log2 fold change is inactive: 0.034.

Compound in a further test: Cn1cncc1[C@@](N)(c1ccc(Cl)cc1)c1ccc2c(c1)c(-c1cccc(Cl)c1)cc(=O)n2C [tipifarnib]
Described as above. In short, it runs like this:
as §1
Turning to BEGAIN, A0A1B0GVM0, the log2 fold change is inactive: -0.068.
Take BPIFA1 (UniProt Q9NP55): the log2 fold change is inactive: -0.155.
As for BTBD1 (UniProt Q9H0C5), the log2 fold change was inactive: -0.4.
As to BRD9 (UniProt Q9H8M2), the log2 fold change is inactive: -0.166.
Take BBS4 isoform 2 (UniProt Q96RK4): the log2 fold change is inactive: -0.22.
In the case of BTBD10 isoform 2 (UniProt Q9BSF8), the log2 fold change is inactive: 0.072.
Regarding BPIFB1 (UniProt Q8TDL5), the log2 fold change is inactive: -0.122.
On to BEX4 (UniProt Q9NWD9), for which the log2 fold change was inactive: -0.019.
As to BPIFA2 (UniProt Q96DR5), the log2 fold change was inactive: -0.524.
For BMT2 (UniProt Q1RMZ1), the log2 fold change is inactive: 0.
In the case of B4GAT1 (UniProt O43505), the log2 fold change is inactive: -0.127.
On the same count and under the same terms, with BBS7 (UniProt Q8IWZ6) the figure was inactive: -0.133; with BBX (UniProt Q8WY36), inactive: -0.362.

Compound in a further test: NC(=O)Nc1cc(-c2cccc(F)c2)sc1C(=O)N[C@H]1CCCNC1
Described as above. In short, it runs like this:
as §1
On to BAIAP2 isoform 6 (UniProt Q9UQB8), for which the log2 fold change was inactive: -0.017.
On to B4GALNT4 (UniProt Q76KP1), for which the log2 fold change was inactive: 0.112.
BTBD2 (UniProt Q9BX70): the log2 fold change is inactive: -0.019.
Still for that read-out and setting: with BEGAIN, A0A1B0GVM0 the figure was inactive: 0.039; with BHLHE40 (UniProt O14503), inactive: 0.097; with BTG1 (UniProt P62324), inactive: -0.012.
For the target BTBD10 isoform 2 (UniProt Q9BSF8), the log2 fold change is inactive: 0.035.
In the case of BEX4 (UniProt Q9NWD9), the log2 fold change was inactive: 0.
On the same count and under the same terms, the value for B4GAT1 (UniProt O43505) was inactive: -0.014.
In the case of BBS7 (UniProt Q8IWZ6), the log2 fold change was inactive: -0.044.
As to B4GALT7 (UniProt Q9UBV7), the log2 fold change was inactive: 0.031.
Take BNIP3L (UniProt O60238): the log2 fold change was inactive: -0.109.
For the target BRWD1 (UniProt Q9NSI6), the log2 fold change was inactive: 0.052.
For BBX (UniProt Q8WY36), the log2 fold change was inactive: -0.103.
Same read-out and setting: the value for BCORL1 isoform 3 (UniProt Q5H9F3) was inactive: 0.235.
As for BDP1 (UniProt A6H8Y1), the log2 fold change is inactive: 0.074.

Values taken from the supplement of paper PMC10849652.
